Earlier results as cited in patent publication US12687554B2, “Molecular profiling of tumors” (Caris MPI, Inc., priority 2006, dated 2026).
At least one compound was matched to its structure with a doubt left.

System: differentially expressed or mutated biomarker in cancer cells

| Compound | Recommended Agents (COX-2, Microarray, Overexpressed) | Resistant Agents (c-kit, Mutational Analysis, Mutated, L576P mutation, metastatic melanoma) |
| --- | --- | --- |
| Cc1ccc(-c2cc(C(F)(F)F)nn2-c2ccc(S(N)(=O)=O)cc2)cc1 [celecoxib] | celecoxib |  |
| Cc1nc(Nc2ncc(C(=O)Nc3c(C)cccc3Cl)s2)cc(N2CCN(CCO)CC2)n1 [dasatinib] |  | dasatinib |
